Reference: PMC8888459
Results are given in words; binding and its absence hold for the method and conditions named. Binding seen in cells or lysates may run through a third protein. These calls come from enrichment with a bait or labelling near it, and not all partners need be listed. Sequences can lack the tags named with a protein.

Biological target: T1, Nfs1 with an N-terminal polyhistidine tag (S. cerevisiae) (UniProt P25374)
T1 sequence: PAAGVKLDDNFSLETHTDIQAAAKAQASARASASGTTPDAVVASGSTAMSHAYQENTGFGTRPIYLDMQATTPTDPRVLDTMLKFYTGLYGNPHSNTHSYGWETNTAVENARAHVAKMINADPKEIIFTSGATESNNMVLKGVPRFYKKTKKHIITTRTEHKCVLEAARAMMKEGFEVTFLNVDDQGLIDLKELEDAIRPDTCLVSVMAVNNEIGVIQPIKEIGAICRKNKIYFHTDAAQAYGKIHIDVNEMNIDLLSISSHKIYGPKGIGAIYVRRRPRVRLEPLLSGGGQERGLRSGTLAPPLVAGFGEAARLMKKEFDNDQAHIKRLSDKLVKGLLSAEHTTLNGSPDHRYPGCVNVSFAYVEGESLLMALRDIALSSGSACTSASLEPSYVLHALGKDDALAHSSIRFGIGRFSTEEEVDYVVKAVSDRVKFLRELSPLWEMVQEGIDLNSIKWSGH
Experiment: co-purification of coexpressed proteins, mass spectrometry of gel bands; Nfs1 (N-terminal polyhistidine tag) and Isd11 coexpressed in E. coli BL21-CodonPlus and purified as a complex; E. coli ACP identified in the preparation by LC-MS/MS of gel pieces

B1: Isd11 (protein, UniProt Q6Q560 1-94)
chain: MPGFTAPTRRQVLSLYKEFIKNANQFNNYNFREYFLSKTRTTFRKNMNQQDPKVLMNLFKEAKNDLGVLKRQSVISQMYTFDRLVVEPLQGRKH
Q: B1 was tested. Which binding did it give?
A: binds
